These are yes or no findings as the source states them, for the method shown. Some binding calls cover weakened binding; strength is not graded here.
Target: human CXCR5 (human) (UniProt P32302)
Assay: binding to DX002 cells expressing CXCR5

Sequences of proteins named here, by UniProt entry; tags and fusion partners are left off.
UniProt P32302: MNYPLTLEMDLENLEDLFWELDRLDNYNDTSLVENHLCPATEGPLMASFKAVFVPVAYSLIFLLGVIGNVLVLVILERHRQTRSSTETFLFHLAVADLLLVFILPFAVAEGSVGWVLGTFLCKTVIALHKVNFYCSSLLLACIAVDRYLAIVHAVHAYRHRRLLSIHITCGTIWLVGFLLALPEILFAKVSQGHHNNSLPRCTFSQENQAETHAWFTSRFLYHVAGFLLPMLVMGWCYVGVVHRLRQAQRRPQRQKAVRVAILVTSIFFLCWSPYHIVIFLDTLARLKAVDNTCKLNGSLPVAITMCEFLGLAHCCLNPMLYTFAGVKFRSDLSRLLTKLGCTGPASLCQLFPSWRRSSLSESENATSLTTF

binding: binds
B1: afucosylated HFB2-4hG1 (antibody, V domains shown)
VH: QVQLKESGPGLVAPSQSLSITCTVSGFSLTSYGVSWVRQPPGKGLEWLGVIWGDGSTNYHSGLISRLSISKDNSKSQVFLKLNSLQSDDTATYYCARVVYWGQGTLVTVSA
VL: DIVMTQAAPSVPVTPGESISISCRSSKSLLHSNGKTYLYWFLQRPGQSPQLLLYRMSNLASGVPDRFSGSGSGTAFTLRISRVEAEDVGVYYCMQHLEYPYTFGGGTKLEIK
modifications: afucosylated (no core fucose on the Fc N-glycan of the heavy chain)
